Laboratory results: PubChem BioAssay AID504808 (Drosophila RNAi Screening Center, 2011)

- Purpose: 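Chromatin factors that keep E2F targets switched off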 (primary screen)
- Cell system: Drosophila S2 cells
- Knock-down reagent: long dsRNA against Drosophila genes
- Measurement: 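Firefly luciferase driven by E2F sites, normalised to Renilla luciferase on the same minimal promoter, measured by plate reader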
- Reading the numbers: E2F firefly: higher = more E2F reporter activity; Renilla normaliser: higher = more normaliser reporter signal
- Active means: 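a knock-down counted as active when the firefly/Renilla E2F signal rose above 50%, a threshold chosen arbitrarily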
The screen tested about 21,000 reagents; this is an unselected part of those that have a named target and a result. In the full data, 18 (0.084%) were called active. 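Raw counts without plate normalisation, one of two replicates; the ratio scores behind the calls were not deposited.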 Unmarked entries are inactive. The numbers tell different reagents against one gene apart. The record does not give: the amount of reagent, the time to read-out.

Mal-A4 (Maltase A4)
- E2F firefly, rep 1: 1.38e5
- Renilla normaliser, rep 1: 4778

CG34337
- E2F firefly, rep 1: 1.14e5
- Renilla normaliser, rep 1: 5919

SmydA-7 (SET and MYND domain containing, arthropod-specific, member 7)
- E2F firefly, rep 1: 71788
- Renilla normaliser, rep 1: 3356

CG9626
- E2F firefly, rep 1: 77582
- Renilla normaliser, rep 1: 3575

Nplp1 (Neuropeptide-like precursor 1)
- E2F firefly, rep 1: 78196
- Renilla normaliser, rep 1: 3089

AP-2sigma (Adaptor Protein complex 2, sigma subunit)
- E2F firefly, rep 1: 1.23e5
- Renilla normaliser, rep 1: 7609

CG9436
- E2F firefly, rep 1: 84603
- Renilla normaliser, rep 1: 3438

Naa60 (N(alpha)-acetyltransferase 60)
- E2F firefly, rep 1: 1.32e5
- Renilla normaliser, rep 1: 7043

CG6938
- E2F firefly, rep 1: 87487
- Renilla normaliser, rep 1: 3902

CG13484
- E2F firefly, rep 1: 1.66e5
- Renilla normaliser, rep 1: 8181

CG13110
- E2F firefly, rep 1: 1.52e5
- Renilla normaliser, rep 1: 4925

Noc3 (Nucleolar complex protein 3)
- E2F firefly, rep 1: 59687
- Renilla normaliser, rep 1: 3734

Sardh (Sarcosine dehydrogenase)
- E2F firefly, rep 1: 74510
- Renilla normaliser, rep 1: 3414

CAH9 (Carbonic anhydrase 9)
- E2F firefly, rep 1: 1.08e5
- Renilla normaliser, rep 1: 5183

qless #1
- E2F firefly, rep 1: 1.23e5
- Renilla normaliser, rep 1: 5560

qless #2
- E2F firefly, rep 1: 1.17e5
- Renilla normaliser, rep 1: 6244

CG5126
- E2F firefly, rep 1: 92519
- Renilla normaliser, rep 1: 3433

Rbcn-3B (Rabconnectin-3B)
- E2F firefly, rep 1: 1.18e5
- Renilla normaliser, rep 1: 5806

No new results follow: an excerpt of the list.
qless #2
- E2F firefly, rep 1: 1.17e5
- Renilla normaliser, rep 1: 6244

CG5126
- E2F firefly, rep 1: 92519
- Renilla normaliser, rep 1: 3433

The list goes on:
CG44325
- E2F firefly, rep 1: 43065
- Renilla normaliser, rep 1: 3307

CG8539
- E2F firefly, rep 1: 71198
- Renilla normaliser, rep 1: 3396

CG3306
- E2F firefly, rep 1: 79509
- Renilla normaliser, rep 1: 3304

mRpS31 (mitochondrial ribosomal protein S31)
- E2F firefly, rep 1: 81046
- Renilla normaliser, rep 1: 4370

CG32032
- E2F firefly, rep 1: 1.26e5
- Renilla normaliser, rep 1: 4768

Glt (Glutactin)
- E2F firefly, rep 1: 93485
- Renilla normaliser, rep 1: 4024

CG10680
- E2F firefly, rep 1: 93500
- Renilla normaliser, rep 1: 4321

CG11044
- E2F firefly, rep 1: 1.63e5
- Renilla normaliser, rep 1: 5466

CG33259
- E2F firefly, rep 1: 1.46e5
- Renilla normaliser, rep 1: 7513

CG31468
- E2F firefly, rep 1: 78106
- Renilla normaliser, rep 1: 2080

NAAT1 (Nutrient Amino Acid Transporter 1)
- E2F firefly, rep 1: 1.10e5
- Renilla normaliser, rep 1: 6716

Irp-1B (Iron regulatory protein 1B)
- E2F firefly, rep 1: 1.53e5
- Renilla normaliser, rep 1: 6473

Pak3
- E2F firefly, rep 1: 68447
- Renilla normaliser, rep 1: 3352

RpS26 (Ribosomal protein S26)
- E2F firefly, rep 1: 60293
- Renilla normaliser, rep 1: 115

Rab11
- E2F firefly, rep 1: 1.06e5
- Renilla normaliser, rep 1: 6178

Jon65Aii (Jonah 65Aii)
- E2F firefly, rep 1: 78013
- Renilla normaliser, rep 1: 3267

Exo84 (Exocyst 84)
- E2F firefly, rep 1: 1.01e5
- Renilla normaliser, rep 1: 7641

CG15472
- E2F firefly, rep 1: 1.12e5
- Renilla normaliser, rep 1: 5977
